The source of these data is paper PMC7377239, “Cardiovascular Effects of Polychlorinated Biphenyls and Their Major Metabolites” (Environmental Health Perspectives, 2020).

The data set concerns iPSC-CMs, iPSC-ECs and HUVECs phenotypes. In words: ToxPi 2.0 integration of POD values and physicochemical descriptors. More on the design: species or system human. The conditions noted are these: for ToxPi_Score_Bioactivity: Biological Activity ToxPi, POD values of iPSC-CM, iPSC-EC and HUVEC phenotypes integrated; for ToxPi_Score_ChemBiol: Chemical-Biological Integration ToxPi, in vitro data plus physicochemical descriptors. The essentials: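 Phenotypic readouts in iPSC-cardiomyocytes, iPSC-endothelial cells and HUVECs were normalised to 0.5% DMSO vehicle and fitted to a four-parameter logistic model. POD set at one SD cutoff of vehicle means, with 100 μM assigned when no response. PODs and physicochemical descriptors combined in ToxPi 2.0 scores.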

Where [1] appears, read: HUVECs tube formation, 18 hr, scaled score from POD.
Setting [2] is: HUVECs, 24 hr, scaled score from POD.
[3] abbreviates: iPSC-EC, 18 h, scaled POD score.
[4] abbreviates: iPSC-EC, 24 h, scaled POD score.
[5] abbreviates: iPSC-EC tube formation, 18 hr, scaled from POD.
The mark [6] stands for this setting: iPSC-EC, 24 hr, scaled from POD.

Where a name gives a salt, the structure may show the parent alone.

Regarding `COc1cc(Cl)c(-c2cc(Cl)ccc2Cl)cc1Cl` [4-OMe PCB52], under “90min”, the “cm.amp.avg.90min ToxPi” value came out at 0.72, the “cm.amp.cv.90min ToxPi” value worked out at 0.19, the “cm.bpm.90min ToxPi” value is reported as 0.65 and the “cm.cam.90min ToxPi” value is 0.53. For the setting “90min”, the “cm.decay.rise.90min ToxPi” value is given as 0.55, the “cm.mii.90min ToxPi” value was 0.21, the “cm.mito.90min ToxPi” value worked out at 0.69 and the “cm.spacing.cv.90min ToxPi” value is 0.09. Further, under “90min”, the “cm.tc.90min ToxPi” value is recorded as 0.46. Also, for the setting “24hrs”, the “cm.amp.avg.24hrs ToxPi” value is 0.00, the “cm.amp.cv.24hrs ToxPi” value came to 0.07, the “cm.bpm.24hrs ToxPi” value was found to be 0.21 and the “cm.cam.24hrs ToxPi” value was found to be 0.15. Further, for the setting “24hrs”, the “cm.decay.rise.24hrs ToxPi” value is recorded as 0.26, the “cm.mii.24hrs ToxPi” value turned out to be 0.76, the “cm.mito.24hrs ToxPi” value is given as 0.22 and the “cm.spacing.cv.24hrs ToxPi” value is 0.25. In addition, the “cm.tc.24hrs ToxPi” value (24hrs) is listed as 0.24. Under setting [1], the “huvec.mtl.18hr ToxPi” value worked out at 0.39, the “huvec.tlps.18hr ToxPi” value is on record as 0.37, the “huvec.tta.18hr ToxPi” value is given as 0.00 and the “huvec.ttl.18hr ToxPi” value is reported as 0.00. Moreover, under setting [2], the “huvec.cyto.24hr ToxPi” value was 0.50, the “huvec.mito.24hr ToxPi” value is 0.62, the “huvec.mitoint.24hr ToxPi” value was found to be 0.72 and the “huvec.nma.24hr ToxPi” value was 0.48. Besides, for the setting “HUVECs, scaled score from POD”, the “huvec.tc.24hrs ToxPi” value is listed as 0.50. In addition, under setting [3], the “endo.mtl.18hr ToxPi” value turned out to be 0.07, the “endo.tlps.18hr ToxPi” value came out at 0.09, the “endo.tta.18hr ToxPi” value was determined as 0.06 and the “endo.ttl.18hr ToxPi” value is given as 0.0557. Under setting [4], the “endo.cyto.24hr ToxPi” value was 0.15, the “endo.mito.24hr ToxPi” value came to 0.15, the “endo.mitoint.24hr ToxPi” value is 0.00 and the “endo.nma.24hr ToxPi” value stood at 0.10. In addition, the “endo.tc.24hrs ToxPi” value under setting [4] stood at 0.16.
With `COc1ccc(-c2cccc(Cl)c2)cc1Cl` [4-OMe-PCB 11, 4-methoxy-3,3′-dichlorobiphenyl], the ToxPi_Score_Bioactivity amounted to 0.416 and the ToxPi_Score_ChemBiol came out at 0.4253.
Consider `COc1cc(Cl)c(-c2cc(Cl)ccc2Cl)cc1Cl` [4-OMe-PCB 52, 4-methoxy-2,2′,5,5′-tetrachlorobiphenyl], for which the ToxPi_Score_Bioactivity is given as 0.3568 and the ToxPi_Score_ChemBiol worked out at 0.526.
As to `O=S(=O)(O)Oc1ccc(-c2cccc(Cl)c2)cc1Cl` [4-PCB 11 sulfate], the ToxPi_Score_Bioactivity was determined as 0.2554 and the ToxPi_Score_ChemBiol is recorded as 0.4098.
On to `O=S(=O)(O)Oc1cc(Cl)c(-c2cc(Cl)ccc2Cl)cc1Cl` [4-PCB 52 sulfate], for which the ToxPi_Score_Bioactivity was determined as 0.4222 and the ToxPi_Score_ChemBiol stood at 0.6505.
`O=S(=O)(O)Oc1ccc(-c2cccc(Cl)c2)cc1Cl` [4-yl PCB 11 sulfate]: for the setting “HUVECs, 18 hr, scaled from POD”, the “huvec.mtl.18hr ToxPi” value is listed as 0.44, the “huvec.tlps.18hr ToxPi” value turned out to be 0.25, the “huvec.tta.18hr ToxPi” value is on record as 0.00 and the “huvec.ttl.18hr ToxPi” value stood at 0.00. For the same compound, under “HUVECs, 24 hr, scaled from POD”, the “huvec.cyto.24hr ToxPi” value is 0.0743, the “huvec.mito.24hr ToxPi” value is listed as 0.09, the “huvec.mitoint.24hr ToxPi” value is 0.44 and the “huvec.nma.24hr ToxPi” value is on record as 0.45. In addition, for the setting “HUVECs, scaled from POD”, the “huvec.tc.24hrs ToxPi” value is 0.0743. Also, under “iPSC-CM”, the “cm.amp.avg.24hrs ToxPi” value was determined as 0.22, the “cm.amp.avg.90min ToxPi” value worked out at 0.54, the “cm.amp.cv.24hrs ToxPi” value came out at 0.38 and the “cm.amp.cv.90min ToxPi” value worked out at 0.21. Besides, under “iPSC-CM”, the “cm.bpm.24hrs ToxPi” value stood at 0.29, the “cm.bpm.90min ToxPi” value came out at 0.31, the “cm.cam.24hrs ToxPi” value came to 0.38 and the “cm.cam.90min ToxPi” value came to 0.00. Further, for the setting “iPSC-CM”, the “cm.decay.rise.24hrs ToxPi” value worked out at 0.33, the “cm.decay.rise.90min ToxPi” value amounted to 0.42, the “cm.mii.24hrs ToxPi” value is 0.19 and the “cm.mii.90min ToxPi” value worked out at 0.00. For the same compound, where the note is “iPSC-CM”, the “cm.mito.24hrs ToxPi” value worked out at 0.57, the “cm.mito.90min ToxPi” value worked out at 0.00, the “cm.spacing.cv.24hrs ToxPi” value is reported as 0.26 and the “cm.spacing.cv.90min ToxPi” value was found to be 0.10. For the same compound, where the note is “iPSC-CM”, the “cm.tc.24hrs ToxPi” value was 0.63 and the “cm.tc.90min ToxPi” value amounted to 0.00. Moreover, under setting [5], the “endo.mtl.18hr ToxPi” value was determined as 0.14, the “endo.tlps.18hr ToxPi” value is 0.33, the “endo.tta.18hr ToxPi” value came to 0.14 and the “endo.ttl.18hr ToxPi” value is 0.13. In addition, under setting [6], the “endo.cyto.24hr ToxPi” value was determined as 0.00, the “endo.mito.24hr ToxPi” value is 0.00, the “endo.mitoint.24hr ToxPi” value amounted to 0.00 and the “endo.nma.24hr ToxPi” value came to 0.00. The “endo.tc.24hrs ToxPi” value under setting [6] was 0.00.
On to `O=S(=O)(O)Oc1cc(Cl)c(-c2cc(Cl)ccc2Cl)cc1Cl` [4-yl PCB 52 sulfate], for which, where the note is “90min”, the “cm.amp.avg.90min ToxPi” value stood at 0.56, the “cm.amp.cv.90min ToxPi” value amounted to 0.28, the “cm.bpm.90min ToxPi” value is on record as 0.37 and the “cm.cam.90min ToxPi” value is 0.92. In addition, for the setting “90min”, the “cm.decay.rise.90min ToxPi” value was found to be 0.47, the “cm.mii.90min ToxPi” value is recorded as 0.33, the “cm.mito.90min ToxPi” value is on record as 0.92 and the “cm.spacing.cv.90min ToxPi” value is 0.10. Further, for the setting “90min”, the “cm.tc.90min ToxPi” value was 0.91. In addition, under “24hrs”, the “cm.amp.avg.24hrs ToxPi” value is on record as 0.00, the “cm.amp.cv.24hrs ToxPi” value came out at 0.43, the “cm.bpm.24hrs ToxPi” value is reported as 0.37 and the “cm.cam.24hrs ToxPi” value amounted to 0.34. In addition, where the note is “24hrs”, the “cm.decay.rise.24hrs ToxPi” value came out at 0.47, the “cm.mii.24hrs ToxPi” value came to 0.21, the “cm.mito.24hrs ToxPi” value is recorded as 0.54 and the “cm.spacing.cv.24hrs ToxPi” value is 0.21. For the same compound, the “cm.tc.24hrs ToxPi” value (24hrs) turned out to be 0.57. For the setting “HUVECs, 18 hr, scaled from POD”, the “huvec.mtl.18hr ToxPi” value was 0.43, the “huvec.tlps.18hr ToxPi” value was determined as 0.43, the “huvec.tta.18hr ToxPi” value turned out to be 0.00 and the “huvec.ttl.18hr ToxPi” value amounted to 0.00. Moreover, where the note is “HUVECs, 24 hr, scaled from POD”, the “huvec.cyto.24hr ToxPi” value was determined as 0.30, the “huvec.mito.24hr ToxPi” value was found to be 0.40, the “huvec.mitoint.24hr ToxPi” value is 0.10 and the “huvec.nma.24hr ToxPi” value is reported as 0.14. For the same compound, for the setting “HUVECs, scaled from POD”, the “huvec.tc.24hrs ToxPi” value amounted to 0.30. Also, under setting [5], the “endo.mtl.18hr ToxPi” value is recorded as 0.27, the “endo.tlps.18hr ToxPi” value was 0.46, the “endo.tta.18hr ToxPi” value is reported as 0.22 and the “endo.ttl.18hr ToxPi” value was 0.22. Further, under setting [6], the “endo.cyto.24hr ToxPi” value came out at 0.15, the “endo.mito.24hr ToxPi” value turned out to be 0.15, the “endo.mitoint.24hr ToxPi” value came to 0.00 and the “endo.nma.24hr ToxPi” value amounted to 0.00. In addition, under setting [6], the “endo.tc.24hrs ToxPi” value was determined as 0.12.
For `Oc1cc(Cl)cc(-c2cccc(Cl)c2)c1` [5-OH PCB 11], for the setting “HUVECs, 18 hr, scaled from POD”, the “huvec.mtl.18hr ToxPi” value turned out to be 0.60, the “huvec.tlps.18hr ToxPi” value worked out at 0.00, the “huvec.tta.18hr ToxPi” value is on record as 0.00 and the “huvec.ttl.18hr ToxPi” value is given as 0.17. Besides, for the setting “HUVECs, 24 hr, scaled from POD”, the “huvec.cyto.24hr ToxPi” value came to 0.48, the “huvec.mito.24hr ToxPi” value turned out to be 0.57, the “huvec.mitoint.24hr ToxPi” value stood at 0.68 and the “huvec.nma.24hr ToxPi” value amounted to 0.56. Besides, the “huvec.tc.24hrs ToxPi” value (HUVECs, scaled from POD) came out at 0.48. Also, under “iPSC-CM”, the “cm.amp.avg.24hrs ToxPi” value came to 0.07, the “cm.amp.avg.90min ToxPi” value worked out at 0.65, the “cm.amp.cv.24hrs ToxPi” value came to 0.22 and the “cm.amp.cv.90min ToxPi” value came to 0.27. Also, for the setting “iPSC-CM”, the “cm.bpm.24hrs ToxPi” value is given as 0.15, the “cm.bpm.90min ToxPi” value was 0.74, the “cm.cam.24hrs ToxPi” value amounted to 0.27 and the “cm.cam.90min ToxPi” value came to 0.75. Further, for the setting “iPSC-CM”, the “cm.decay.rise.24hrs ToxPi” value is 0.27, the “cm.decay.rise.90min ToxPi” value was 0.58, the “cm.mii.24hrs ToxPi” value is given as 0.65 and the “cm.mii.90min ToxPi” value is on record as 0.40. Under “iPSC-CM”, the “cm.mito.24hrs ToxPi” value came to 0.41, the “cm.mito.90min ToxPi” value was 0.81, the “cm.spacing.cv.24hrs ToxPi” value was 0.27 and the “cm.spacing.cv.90min ToxPi” value was 0.08. Under “iPSC-CM”, the “cm.tc.24hrs ToxPi” value was determined as 0.51 and the “cm.tc.90min ToxPi” value worked out at 0.81. Under setting [5], the “endo.mtl.18hr ToxPi” value is 0.31, the “endo.tlps.18hr ToxPi” value amounted to 0.46, the “endo.tta.18hr ToxPi” value amounted to 0.24 and the “endo.ttl.18hr ToxPi” value amounted to 0.24. In addition, under setting [6], the “endo.cyto.24hr ToxPi” value stood at 0.15, the “endo.mito.24hr ToxPi” value is reported as 0.15, the “endo.mitoint.24hr ToxPi” value stood at 0.08 and the “endo.nma.24hr ToxPi” value is 0.34. In addition, under setting [6], the “endo.tc.24hrs ToxPi” value was found to be 0.15.
As to `Oc1cc(Cl)cc(-c2cccc(Cl)c2)c1` [5-OH-PCB 11], the ToxPi_Score_Bioactivity amounted to 0.478 and the ToxPi_Score_ChemBiol is 0.4567.
